Test results taken from the supplement of paper PMC12819154, “High-throughput peptide-centric local stability assay extends protein–ligand identification to membrane proteins, tissues and bacteria” (Nature Structural & Molecular Biology, 2025).
This is one part of the list. Most values lie at the level of the controls, where differences are scatter.

Amino acid sequences for entries named in this document (tags omitted). A change or cut given only in a name is not applied to a line headed by its entry.
UniProt P25665: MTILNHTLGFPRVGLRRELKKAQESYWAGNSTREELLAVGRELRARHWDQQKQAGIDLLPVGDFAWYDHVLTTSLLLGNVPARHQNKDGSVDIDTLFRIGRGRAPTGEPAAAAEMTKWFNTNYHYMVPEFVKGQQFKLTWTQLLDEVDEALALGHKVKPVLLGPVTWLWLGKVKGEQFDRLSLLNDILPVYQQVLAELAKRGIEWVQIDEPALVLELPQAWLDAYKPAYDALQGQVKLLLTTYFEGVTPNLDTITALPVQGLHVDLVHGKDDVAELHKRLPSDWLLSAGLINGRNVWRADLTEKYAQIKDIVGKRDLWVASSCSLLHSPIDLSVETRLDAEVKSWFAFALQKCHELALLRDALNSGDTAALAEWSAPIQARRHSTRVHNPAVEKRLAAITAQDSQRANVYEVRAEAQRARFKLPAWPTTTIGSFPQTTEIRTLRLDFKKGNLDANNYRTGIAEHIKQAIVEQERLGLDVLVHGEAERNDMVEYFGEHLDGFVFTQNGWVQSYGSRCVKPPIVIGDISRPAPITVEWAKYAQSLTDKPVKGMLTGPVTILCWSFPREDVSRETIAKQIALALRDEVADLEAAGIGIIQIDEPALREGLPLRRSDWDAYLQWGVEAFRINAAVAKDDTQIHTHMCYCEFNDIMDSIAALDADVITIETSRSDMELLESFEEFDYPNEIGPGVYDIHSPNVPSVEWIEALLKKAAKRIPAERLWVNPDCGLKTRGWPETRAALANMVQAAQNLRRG
UniProt P25888: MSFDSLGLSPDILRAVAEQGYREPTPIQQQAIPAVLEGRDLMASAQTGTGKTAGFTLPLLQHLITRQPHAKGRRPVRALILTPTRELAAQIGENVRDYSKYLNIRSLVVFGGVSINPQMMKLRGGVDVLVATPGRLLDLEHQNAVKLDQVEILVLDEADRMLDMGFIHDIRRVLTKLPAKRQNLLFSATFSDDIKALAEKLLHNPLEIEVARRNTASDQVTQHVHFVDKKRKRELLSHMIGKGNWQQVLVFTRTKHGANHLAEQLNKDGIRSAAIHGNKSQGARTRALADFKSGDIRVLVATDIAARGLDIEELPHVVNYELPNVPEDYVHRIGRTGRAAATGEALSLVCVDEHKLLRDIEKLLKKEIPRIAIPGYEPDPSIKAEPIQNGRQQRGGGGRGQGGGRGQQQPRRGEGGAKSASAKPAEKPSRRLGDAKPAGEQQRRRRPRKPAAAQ
UniProt P30863: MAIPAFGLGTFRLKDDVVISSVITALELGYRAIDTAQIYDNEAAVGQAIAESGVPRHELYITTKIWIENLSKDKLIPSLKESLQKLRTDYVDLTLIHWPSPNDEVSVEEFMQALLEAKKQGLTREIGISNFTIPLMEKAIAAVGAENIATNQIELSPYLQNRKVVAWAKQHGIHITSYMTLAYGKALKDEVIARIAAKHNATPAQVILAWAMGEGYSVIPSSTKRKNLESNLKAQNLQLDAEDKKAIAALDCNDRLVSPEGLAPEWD
UniProt P27238: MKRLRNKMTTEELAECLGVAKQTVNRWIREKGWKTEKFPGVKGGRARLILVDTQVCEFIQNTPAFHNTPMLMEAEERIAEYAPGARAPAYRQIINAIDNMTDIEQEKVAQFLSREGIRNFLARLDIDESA
UniProt P32125: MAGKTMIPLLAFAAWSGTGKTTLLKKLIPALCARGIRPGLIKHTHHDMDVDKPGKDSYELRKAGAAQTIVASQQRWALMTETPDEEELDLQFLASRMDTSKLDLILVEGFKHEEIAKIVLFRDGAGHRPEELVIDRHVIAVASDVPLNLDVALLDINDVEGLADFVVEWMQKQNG
UniProt P24255: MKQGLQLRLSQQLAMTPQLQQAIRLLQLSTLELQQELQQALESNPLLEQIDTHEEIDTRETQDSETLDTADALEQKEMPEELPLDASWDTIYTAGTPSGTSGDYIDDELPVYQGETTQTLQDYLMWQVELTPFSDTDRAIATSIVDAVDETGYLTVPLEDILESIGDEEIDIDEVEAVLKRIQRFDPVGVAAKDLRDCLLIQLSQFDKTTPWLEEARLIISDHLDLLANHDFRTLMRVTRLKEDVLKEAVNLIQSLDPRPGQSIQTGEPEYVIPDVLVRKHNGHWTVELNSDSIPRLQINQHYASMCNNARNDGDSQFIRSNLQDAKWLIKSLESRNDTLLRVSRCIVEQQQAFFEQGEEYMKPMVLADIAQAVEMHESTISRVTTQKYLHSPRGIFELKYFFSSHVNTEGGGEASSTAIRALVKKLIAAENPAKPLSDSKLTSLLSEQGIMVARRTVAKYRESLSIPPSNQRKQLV
UniProt P31449: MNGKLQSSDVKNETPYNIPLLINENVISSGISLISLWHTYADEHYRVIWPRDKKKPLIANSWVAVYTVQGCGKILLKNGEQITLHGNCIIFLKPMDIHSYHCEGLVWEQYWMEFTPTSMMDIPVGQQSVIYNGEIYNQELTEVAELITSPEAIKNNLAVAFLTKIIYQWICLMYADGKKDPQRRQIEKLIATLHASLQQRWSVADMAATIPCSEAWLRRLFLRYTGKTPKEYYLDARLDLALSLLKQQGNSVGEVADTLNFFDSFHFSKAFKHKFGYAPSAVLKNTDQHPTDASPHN
UniProt P30744: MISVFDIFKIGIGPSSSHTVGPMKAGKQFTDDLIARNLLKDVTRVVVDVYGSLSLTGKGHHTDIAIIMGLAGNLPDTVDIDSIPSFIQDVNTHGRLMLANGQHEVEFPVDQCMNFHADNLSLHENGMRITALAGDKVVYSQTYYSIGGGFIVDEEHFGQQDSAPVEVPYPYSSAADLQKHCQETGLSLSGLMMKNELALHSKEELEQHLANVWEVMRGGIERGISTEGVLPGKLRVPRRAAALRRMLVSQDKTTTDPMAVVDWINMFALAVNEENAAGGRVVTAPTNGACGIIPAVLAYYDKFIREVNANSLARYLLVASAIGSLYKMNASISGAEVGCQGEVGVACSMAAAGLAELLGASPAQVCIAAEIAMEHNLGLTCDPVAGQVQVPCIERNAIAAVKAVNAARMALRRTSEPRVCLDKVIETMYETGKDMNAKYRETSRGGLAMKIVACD
UniProt P33228: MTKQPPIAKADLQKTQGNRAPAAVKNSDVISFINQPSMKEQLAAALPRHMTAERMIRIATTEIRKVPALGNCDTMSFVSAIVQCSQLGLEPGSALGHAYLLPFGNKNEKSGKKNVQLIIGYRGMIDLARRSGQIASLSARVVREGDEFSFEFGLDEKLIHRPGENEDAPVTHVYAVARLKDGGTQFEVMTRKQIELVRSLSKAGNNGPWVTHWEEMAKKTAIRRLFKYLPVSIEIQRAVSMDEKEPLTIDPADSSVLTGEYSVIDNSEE
UniProt P25742: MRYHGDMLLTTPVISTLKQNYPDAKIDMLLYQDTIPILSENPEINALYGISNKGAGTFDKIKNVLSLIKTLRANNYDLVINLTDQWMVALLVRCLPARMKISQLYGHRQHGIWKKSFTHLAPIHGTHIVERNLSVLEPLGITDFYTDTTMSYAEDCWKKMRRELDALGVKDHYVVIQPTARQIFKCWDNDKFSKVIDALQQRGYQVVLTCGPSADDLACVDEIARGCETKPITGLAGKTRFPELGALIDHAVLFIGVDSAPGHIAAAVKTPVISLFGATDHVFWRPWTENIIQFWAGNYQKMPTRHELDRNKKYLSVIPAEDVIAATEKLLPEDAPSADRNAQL
UniProt P31600: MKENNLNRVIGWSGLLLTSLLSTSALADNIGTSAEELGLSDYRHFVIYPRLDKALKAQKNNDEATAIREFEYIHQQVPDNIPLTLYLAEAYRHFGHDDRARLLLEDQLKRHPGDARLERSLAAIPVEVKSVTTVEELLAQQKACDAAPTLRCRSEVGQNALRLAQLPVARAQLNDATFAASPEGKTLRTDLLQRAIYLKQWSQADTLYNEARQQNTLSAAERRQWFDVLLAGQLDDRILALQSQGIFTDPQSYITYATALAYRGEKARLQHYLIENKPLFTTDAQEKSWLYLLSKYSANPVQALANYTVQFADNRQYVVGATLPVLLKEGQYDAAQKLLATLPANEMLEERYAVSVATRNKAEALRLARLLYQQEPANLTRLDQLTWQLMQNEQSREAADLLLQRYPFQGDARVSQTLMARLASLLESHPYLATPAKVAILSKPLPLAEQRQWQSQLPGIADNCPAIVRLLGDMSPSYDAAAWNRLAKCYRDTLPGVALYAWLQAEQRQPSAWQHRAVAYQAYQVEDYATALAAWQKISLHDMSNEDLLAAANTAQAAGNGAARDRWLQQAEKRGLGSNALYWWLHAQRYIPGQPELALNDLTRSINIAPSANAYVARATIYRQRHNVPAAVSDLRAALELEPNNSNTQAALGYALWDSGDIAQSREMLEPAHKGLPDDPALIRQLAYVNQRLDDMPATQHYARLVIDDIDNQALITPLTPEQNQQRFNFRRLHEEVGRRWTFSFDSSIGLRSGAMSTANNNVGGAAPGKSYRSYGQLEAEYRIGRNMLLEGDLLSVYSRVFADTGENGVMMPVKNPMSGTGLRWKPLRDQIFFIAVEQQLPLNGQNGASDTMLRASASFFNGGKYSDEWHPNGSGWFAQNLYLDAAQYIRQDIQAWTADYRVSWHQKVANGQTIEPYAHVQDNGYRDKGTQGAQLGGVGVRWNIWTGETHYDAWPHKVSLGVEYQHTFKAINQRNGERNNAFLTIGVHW
UniProt P24252: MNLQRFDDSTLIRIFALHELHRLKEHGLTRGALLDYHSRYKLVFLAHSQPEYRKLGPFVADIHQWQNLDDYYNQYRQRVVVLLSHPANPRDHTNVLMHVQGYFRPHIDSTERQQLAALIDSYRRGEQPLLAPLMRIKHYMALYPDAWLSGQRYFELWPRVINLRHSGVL
UniProt P27296: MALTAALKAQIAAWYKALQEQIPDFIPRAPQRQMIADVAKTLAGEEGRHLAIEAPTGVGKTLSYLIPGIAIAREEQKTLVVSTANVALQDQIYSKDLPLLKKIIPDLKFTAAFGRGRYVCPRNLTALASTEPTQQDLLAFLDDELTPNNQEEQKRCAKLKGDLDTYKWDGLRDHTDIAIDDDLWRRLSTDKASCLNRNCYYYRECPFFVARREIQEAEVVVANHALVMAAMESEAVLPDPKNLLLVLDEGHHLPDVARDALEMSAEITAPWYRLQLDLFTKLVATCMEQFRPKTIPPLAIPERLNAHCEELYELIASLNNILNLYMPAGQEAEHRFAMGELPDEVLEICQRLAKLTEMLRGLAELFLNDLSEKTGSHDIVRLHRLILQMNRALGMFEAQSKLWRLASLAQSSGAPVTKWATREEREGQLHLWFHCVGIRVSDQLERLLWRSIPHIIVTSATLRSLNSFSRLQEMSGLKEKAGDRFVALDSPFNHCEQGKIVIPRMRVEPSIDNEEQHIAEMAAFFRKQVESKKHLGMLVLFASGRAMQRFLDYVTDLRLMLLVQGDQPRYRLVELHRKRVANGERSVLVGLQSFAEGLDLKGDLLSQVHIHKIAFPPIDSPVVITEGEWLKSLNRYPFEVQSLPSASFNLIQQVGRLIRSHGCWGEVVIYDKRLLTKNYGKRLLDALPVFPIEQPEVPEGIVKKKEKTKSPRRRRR
UniProt P27828: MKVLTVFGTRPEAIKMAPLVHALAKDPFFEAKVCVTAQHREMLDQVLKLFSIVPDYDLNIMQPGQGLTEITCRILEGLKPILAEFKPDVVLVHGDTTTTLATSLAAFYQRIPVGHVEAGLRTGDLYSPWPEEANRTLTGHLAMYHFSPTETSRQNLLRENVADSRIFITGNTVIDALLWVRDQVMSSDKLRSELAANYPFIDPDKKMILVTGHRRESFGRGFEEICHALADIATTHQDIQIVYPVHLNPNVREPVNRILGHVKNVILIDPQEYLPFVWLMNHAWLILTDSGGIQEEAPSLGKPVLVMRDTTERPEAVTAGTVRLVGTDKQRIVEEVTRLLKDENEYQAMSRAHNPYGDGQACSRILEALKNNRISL
UniProt P31433: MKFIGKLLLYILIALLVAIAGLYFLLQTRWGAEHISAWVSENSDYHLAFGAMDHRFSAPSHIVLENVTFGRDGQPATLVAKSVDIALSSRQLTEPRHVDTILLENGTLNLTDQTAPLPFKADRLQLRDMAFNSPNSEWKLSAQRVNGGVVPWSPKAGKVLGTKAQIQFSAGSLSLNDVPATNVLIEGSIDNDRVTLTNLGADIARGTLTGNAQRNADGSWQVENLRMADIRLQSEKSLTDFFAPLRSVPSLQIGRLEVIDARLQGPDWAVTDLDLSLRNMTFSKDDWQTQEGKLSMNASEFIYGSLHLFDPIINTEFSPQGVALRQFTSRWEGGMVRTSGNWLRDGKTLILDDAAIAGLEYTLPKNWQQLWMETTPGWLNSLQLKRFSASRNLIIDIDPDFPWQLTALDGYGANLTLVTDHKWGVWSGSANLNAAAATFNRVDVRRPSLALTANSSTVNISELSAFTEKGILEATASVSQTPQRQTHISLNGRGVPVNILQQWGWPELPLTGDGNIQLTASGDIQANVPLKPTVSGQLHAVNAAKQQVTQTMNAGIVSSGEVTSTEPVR
UniProt P33354: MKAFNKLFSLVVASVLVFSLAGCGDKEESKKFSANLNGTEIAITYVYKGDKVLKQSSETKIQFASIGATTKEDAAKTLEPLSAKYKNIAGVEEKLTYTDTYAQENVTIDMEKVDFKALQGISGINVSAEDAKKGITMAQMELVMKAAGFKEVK

These targets were tested with CC1(C)S[C@@H]2[C@H](NC(=O)[C@H](N)c3ccccc3)C(=O)N2[C@H]1C(=O)O [ampicillin] (assay: log2 fold change of tryptic peptide abundance, ligand vs vehicle (limited proteolysis) (log2 ratio); higher = more trypsin-susceptible (destabilized)). Conditions: ligand concentration: 10 uM; sample: E. coli crude lysate.
Target “UniProt P32153 (peptide sequence: LGQGPGLMLFDKR, peptide start residue: 247)” has a log2 fold change of 0.66. Target “UniProt P30177 (peptide sequence: FFSDIGGR, peptide start residue: 214)” has a log2 fold change of 0.135. For “UniProt P25665 (peptide sequence: LWVNPDCGLK, peptide start residue: 720)”, the log2 fold change was -0.507. Work on “UniProt P28632 (peptide sequence: RPGALQGEIAIAIPAHVR, peptide start residue: 21)” yielded a log2 fold change of -0.935. “UniProt P25888 (peptide sequence: ELAAQIGENVRDYSK, peptide start residue: 86)” was tested, and the log2 fold change was -0.558. Work on “UniProt P30863 (peptide sequence: KNLESNLK, peptide start residue: 226)” yielded a log2 fold change of 0.0662. “UniProt P27238 (peptide sequence: IAEYAPGAR, peptide start residue: 78)” gave a log2 fold change of -0.0586. With “UniProt P32125 (peptide sequence: KAGAAQTIVASQQR, peptide start residue: 62)” the log2 fold change was 0.276. Work on “UniProt P24255 (peptide sequence: YRESLSIPPSNQR, peptide start residue: 461)” yielded a log2 fold change of -0.328. In the case of “UniProt P33590 (peptide sequence: EKNGQPLR, peptide start residue: 356)”, the log2 fold change is reported as -0.307. Work on “UniProt P31449 (peptide sequence: FGYAPSAVLK, peptide start residue: 275)” yielded a log2 fold change of -0.139. With “UniProt P32719 (peptide sequence: SEVQPHAK, peptide start residue: 222)” the log2 fold change was 0.484. “UniProt P30744 (peptide sequence: NLLKDVTR, peptide start residue: 37)” was tested, and the log2 fold change was -0.554. “UniProt P33362 (peptide sequence: ADALPAFEK, peptide start residue: 172)” gave a log2 fold change of 0.368. “UniProt P33228 (peptide sequence: KQIELVR, peptide start residue: 192)” was tested, and the log2 fold change was 0.145. With “UniProt P33343 (peptide sequence: LSLITNDKITGNDK, peptide start residue: 95)” the log2 fold change was 0.156. “UniProt P31802 (peptide sequence: GSKVFSER, peptide start residue: 126)” was tested, and the log2 fold change was -0.455. Work on “UniProt P25742 (peptide sequence: QHGIWKK, peptide start residue: 109)” yielded a log2 fold change of 0.378. “UniProt P27249 (peptide sequence: HLLQHDLSK, peptide start residue: 686)” showed a log2 fold change of -0.299. “UniProt P31600 (peptide sequence: EGQYDAAQK, peptide start residue: 329)” was tested, and the log2 fold change was 0.471. Target “UniProt P24252 (peptide sequence: FDDSTLIR, peptide start residue: 6)” has a log2 fold change of 0.313. “UniProt P30748 (peptide sequence: WALALEDGK, peptide start residue: 42)” showed a log2 fold change of 0.181. “UniProt P32143 (peptide sequence: AGIPDCDQTR, peptide start residue: 282)” showed a log2 fold change of 0.245. Work on “UniProt P27296 (peptide sequence: LMLLVQGDQPR, peptide start residue: 559)” yielded a log2 fold change of 0.242. “UniProt P29012 (peptide sequence: IEQAAEGLECRR, peptide start residue: 176)” showed a log2 fold change of -0.224. In the case of “UniProt P32167 (peptide sequence: VEGGLSVEQQQKLAQTAK, peptide start residue: 91)”, the log2 fold change is reported as -0.317. With “UniProt P32176 (peptide sequence: DTTLQHPR, peptide start residue: 351)” the log2 fold change was 0.466. “UniProt P27828 (peptide sequence: SELAANYPFIDPDKK, peptide start residue: 192)” was tested, and the log2 fold change was 0.158. “UniProt P31433 (peptide sequence: VNGGVVPWSPK, peptide start residue: 145)” gave a log2 fold change of 0.199. “UniProt P27832 (peptide sequence: QLASAAFAQSR, peptide start residue: 98)” gave a log2 fold change of -0.291. “UniProt P25396 (peptide sequence: AVLMKAEDKE, peptide start residue: 321)” was tested, and the log2 fold change was 0.299. For “UniProt P31828 (peptide sequence: PFLLANTR, peptide start residue: 184)”, the log2 fold change was -0.223. Work on “UniProt P27250 (peptide sequence: VVALGSAAQDK, peptide start residue: 69)” yielded a log2 fold change of 0.254. Work on “UniProt P33354 (peptide sequence: IQFASIGATTKEDAAK, peptide start residue: 61)” yielded a log2 fold change of 0.0234. Work on “UniProt P33219 (peptide sequence: SADIHYQVSVDCKAGMAEYQRR, peptide start residue: 97)” yielded a log2 fold change of -0.577.
